Laboratory results published in the supplement of paper PMC8104966.
The other results are listed elsewhere or left out. Single values are uncertain here, since repeats match poorly.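 Fusion between ACE2-bearing and full-length-spike-bearing U2OS cells was measured by imaging as the percentage of nuclei with both cell types' fluorescent markers. An inhibitory hit is a non-toxic compound whose fusion z-score is below -3, more than three standard deviations beneath the plate's DMSO wells.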

test system: U2OS ACE2 x SARS-CoV-2 spike co-culture; test: cell-cell fusion (fraction fused) z-score vs plate DMSO control; higher = more fusion; conditions: 30 µM; 5 h; toxicity class: non-toxic, passed QC

SMILES | cell-cell fusion (z-score)
CN1C(C(=O)Nc2ccccn2)=C(O)c2ccccc2S1(=O)=O | inactive: 0.932
CCN(CC)CCNC(=O)c1cc(Cl)c(N)cc1OC.Cl [Metoclopramide hydrochloride] | inactive: 1.92
CCN(CC)CCNC(=O)c1cc(Cl)c(N)cc1OC.Cl | inactive: 0.719
CCSCCC(N)C(=O)O (stereo unspecified) | inactive: 2.45
CO/N=C(\C(=O)N[C@@H]1C(=O)N2C(C(=O)[O-])=C(CSc3nc(=O)c([O-])nn3C)CS[C@H]12)c1csc(N)n1.CO/N=C(\C(=O)N[C@@H]1C(=O)N2C(C(=O)[O-])=C(CSc3nc(=O)c([O-])nn3C)CS[C@H]12)c1csc(N)n1.O.O.O.O.O.O.O.[Na+].[Na+].[Na+].[Na+] [Ceftriaxone sodium] | inactive: 1.46
C[C@](N)(Cc1ccc(O)c(O)c1)C(=O)O [L-alpha-Methyl DOPA] | inactive: 2.15
COc1c2occc2cc2ccc(=O)oc12 | inactive: -0.384
CCC1NC(=O)c2cc(S(N)(=O)=O)c(Cl)cc2N1 (stereo unspecified) | inactive: 4.02
O.O.O.O=C([O-])C1[O][Sb]2[O]C(=O)C([O]2)C(C(=O)[O-])[O][Sb]2[O]C(=O)C1[O]2.[K+].[K+] (stereo unspecified) | inactive: 2.9
N=C(NCCC[C@H](N)C(=O)O)N[N+](=O)[O-] [NG-Nitro-L-arginine] | inactive: 2.38
C=C1[C@H]2CC[C@@]3(C)[C@H](c4ccoc4)OC(=O)C[C@]13O[C@H]1C[C@H](O)C(C)(C)[C@H](CC(=O)OC)[C@]12C [3-DEOXY-3beta-HYDROXYANGOLENSIC ACID METHYL ESTER] | inactive: 1.38
CNC(=O)c1cc(COc2nnc(Nc3ccc(Cl)cc3)c3ccoc23)ccn1 [Telatinib (BAY 57-9352)] | inactive: 0.742
Cc1ncc([N+](=O)[O-])n1C | inactive: 2.18
N[C@@H](CO)C(=O)O [serine] | inactive: 0.435
CCCCCCCCCCCCCCCC(=O)OC[C@H](NC(=O)C(Cl)Cl)[C@H](O)c1ccc([N+](=O)[O-])cc1 | inactive: 1.06
COc1ccccc1OCCNCC(O)COc1cccc2[nH]c3ccccc3c12 (stereo unspecified) [Carvedilol] | active: -4.06
COc1ccc(C(CN(C)C)C2(O)CCCCC2)cc1.Cl (stereo unspecified) | inactive: 2.87
COc1ccc(C(CN(C)C)C2(O)CCCCC2)cc1.Cl (stereo unspecified) [Venlafaxine hydrochloride] | inactive: 1.76
COc1ccc(C[C@H](N)C(=O)N[C@@H]2[C@@H](CO)OC(n3cnc4c(N(C)C)ncnc43)[C@@H]2O)cc1.Cl.Cl (stereo partly specified) | inactive: 3.45
C[C@@H]1O[C@H](C[N+](C)(C)C)C[C@H]1O.[Cl-] (racemic) [(±)-Muscarine chloride] | inactive: 2.13
COC(=O)C[C@H]1C(C)(C)[C@@H](OC(C)=O)[C@@H]2CC3C4CC(=O)O[C@@H](c5ccoc5)[C@]4(C)CCC3[C@@]1(C)C2=O (stereo partly specified) | inactive: 2.37
Nc1nc(NCCNc2ncc(-n3ccnc3)c(-c3ccc(Cl)cc3Cl)n2)ccc1[N+](=O)[O-] | inactive: 1.62

SMILES | cell-cell fusion (z-score)
CCN(CC)Cc1ccc(Nc2ccnc3cc(Cl)ccc23)cc1O.Cl.Cl | inactive: 0.158
C1N2CN3CN1CN(C2)C3 | inactive: 1.27
CN(C)CCN(Cc1ccccc1)c1ccccn1.O=C(O)CC(O)(CC(=O)O)C(=O)O | inactive: -1.85
CC(C)(C)c1cnc(CSc2cnc(NC(=O)C3CCNCC3)s2)o1 | inactive: 1.57
O=C(O)C1CCCNC1 (stereo unspecified) | inactive: -0.254
CCC(C)CCCCC(=O)NC(CCN)C(=O)NC(C(=O)NC(CCN)C(=O)NC1CCNC(=O)C(C(C)O)NC(=O)C(CCN)NC(=O)C(CCN)NC(=O)C(CC(C)C)NC(=O)C(Cc2ccccc2)NC(=O)C(CCN)NC1=O)C(C)O.O=S(=O)(O)O (stereo unspecified) | inactive: -0.127
CC(C)C(=O)Nc1ccc([N+](=O)[O-])c(C(F)(F)F)c1 [Flutamide] | inactive: 2.11
Oc1nc2cc(Cl)c(Cl)cc2nc1O | inactive: 1.25
CC(C)(C(=O)O)c1ccc(C(O)CCCN2CCC(C(O)(c3ccccc3)c3ccccc3)CC2)cc1.Cl (stereo unspecified) [Fexofenadine hydrochloride] | inactive: 3.17
CCCC1O[C@@H]2CC3C4CCC5=CC(=O)C=CC5(C)C4[C@@H](O)CC3(C)[C@]2(C(=O)CO)O1 (stereo partly specified) | inactive: -1.78
CN1CCc2nc(C(=O)N[C@@H]3C[C@@H](C(=O)N(C)C)CC[C@@H]3NC(=O)C(=O)Nc3ccc(Cl)cn3)sc2C1 [Edoxaban] | inactive: 1.6
CN1CC[C@@]2(C)c3cc(O)ccc3N(C)C12.O=C(O)/C=C\C(=O)O (single isomer, unassigned; (-)) [(-)-Eseroline fumarate] | inactive: 1.21
C#C[C@]1(O)CCC2C3CCC4=CC(=O)CC[C@@H]4C3CC[C@@]21C (stereo partly specified) | inactive: 0.612
CC(CCc1ccc(O)cc1)NCC(O)c1ccc(O)cc1.Cl (stereo unspecified) | inactive: 2.65
CC1(C)C(=O)CC[C@@]2(C)C1C[C@@H](O)[C@@]1(C)C3=CC(=O)O[C@@H](c4ccoc4)[C@]3(C)CCC21 (stereo partly specified) | inactive: 1.87
C=CCc1ccc(OC)cc1 | inactive: 1.61
CO[C@@]1(NC(=O)Cc2cccs2)C(=O)N2C(C(=O)[O-])=C(COC(N)=O)CS[C@@H]21.[Na+] [Cefoxitin sodium] | inactive: 0.352
O=c1cc(-c2ccccc2)oc2cc(O)ccc12 | inactive: 1.98
Cc1cc(=O)oc2cc(O)ccc12 | inactive: 3.62
CN(C)CCc1c[nH]c2ccc(Cn3cncn3)cc12.O=C(O)c1ccccc1 [Rizatriptan benzoate] | inactive: 2.01
CCC[C@@H]1C[C@@H](C(=O)N[C@@H]([C@H]2O[C@H](SC)[C@H](O)[C@@H](O)[C@H]2O)[C@@H](C)O)N(C)C1.Cl [Lincomycin hydrochloride] | inactive: 3.09
CCCCC/C=C\C/C=C\C/C=C\C/C=C\CCCC(=O)O | inactive: 2.49

SMILES | cell-cell fusion (z-score)
NC(=O)c1cc[n+](CC2=C(C(=O)[O-])N3C(=O)C(NC(=O)C(c4ccccc4)S(=O)(=O)[O-])C3SC2)cc1.[Na+] (stereo unspecified) | inactive: -0.746
Cc1c(O)c(=O)n(-c2ccccc2)n1C | inactive: 3.78
C/C(=C\c1ccc(C(=O)O)cc1)c1ccc2c(c1)C(C)(C)CCC2(C)C | inactive: 0.657
Cc1cccc(C)c1NC(=O)C1CCCCN1C.Cl (stereo unspecified) [Mepivacaine hydrochloride] | inactive: 2.4
CCc1ccc(CCOc2ccc(CC3SC(=O)NC3=O)cc2)nc1.Cl (stereo unspecified) | inactive: 1.95
N=S(=O)([O-])Cc1noc2ccccc12.[Na+] [Zonisamide sodium] | inactive: 1.01
Cc1cc(C)nc([N-]S(=O)(=O)c2ccc(N)cc2)n1.[Na+] [Sulfamethazine sodium salt] | inactive: 2.46
Cc1cccc(-c2nn3c(c2-c2ccnc4ccc(C(N)=O)cc24)CCC3)n1 | inactive: -0.315
CC(=O)O[C@@H]1CC2C(C)(C)C(=O)C=C[C@]2(C)C2CC[C@@]3(C)[C@H](c4ccoc4)OC(=O)[C@H]4O[C@]43[C@@]21C (stereo partly specified) | inactive: 2.3
Cl.NOCC(=O)O.NOCC(=O)O [O-(Carboxymethyl)hydroxylamine hemihydrochloride] | inactive: 2.37
CC(C)(CO)[C@@H](O)C(=O)NCCCO | inactive: 2.3
CC(=O)CC(=O)CCC(=O)O | inactive: 2.46
CCCCCc1ccc(/C=C/C(=O)Nc2cc(Cl)ccc2C(=O)O)cc1 | inactive: 1.75
CC[C@H](/C=C/C(C)C1CCC2C3CCC4=CC(=O)CC[C@]4(C)C3CC[C@]12C)C(C)C (stereo partly specified) | inactive: 2.07
CN(Cc1ccc(C(C)(C)C)cc1)Cc1cccc2ccccc12.Cl [Butenafine hydrochloride] | inactive: 1.36
CC(C(O)c1ccc(O)cc1)N1CCC(Cc2ccccc2)CC1.O=C(O)[C@H](O)[C@@H](O)C(=O)O (stereo unspecified) | inactive: 1.67
N[C@H](CCCP(=O)(O)O)C(=O)O [D(-)-2-Amino-5-phosphonopentanoic acid] | inactive: 2.2
Nc1nc2ccc(Cl)cc2c2nc(-c3ccco3)nn12 | inactive: 0.927
CC(=O)Oc1ccccc1C(=O)Oc1ccccc1C(=O)O | inactive: 3.41
O=P(O)(O)OC(Cn1cncn1)(Cn1cncn1)c1ccc(F)cc1F [Fosfluconazole] | inactive: 2.94
CN[C@H](CC(C)C)C(=O)N[C@H]1C(=O)N[C@@H](CC(N)=O)C(=O)N[C@H]2C(=O)N[C@H]3C(=O)N[C@H](C(=O)N[C@H](C(=O)O)c4cc(O)cc(O)c4-c4cc3ccc4O)[C@H](O)c3ccc(c(Cl)c3)Oc3cc2cc(c3O[C@@H]2O[C@H](CO)[C@@H](O)[C@H](O)[C@H]2O[C@H]2C[C@](C)(N)[C@H](O)[C@H](C)O2)Oc2ccc(cc2Cl)[C@H]1O.Cl [Vancomycin hydrochloride from Streptomyces orientalis] | inactive: 2.56
Nc1ccccc1NC(=O)c1ccc(CNC(=O)OCc2cccnc2)cc1 [Entinostat (MS-275, SNDX-275)] | inactive: 1.66

An excerpt of these results, as tab-separated lines.
SMILES	cell-cell fusion (z-score)
CCSCCC(N)C(=O)O (stereo unspecified)	inactive: 2.45
CO/N=C(\C(=O)N[C@@H]1C(=O)N2C(C(=O)[O-])=C(CSc3nc(=O)c([O-])nn3C)CS[C@H]12)c1csc(N)n1.CO/N=C(\C(=O)N[C@@H]1C(=O)N2C(C(=O)[O-])=C(CSc3nc(=O)c([O-])nn3C)CS[C@H]12)c1csc(N)n1.O.O.O.O.O.O.O.[Na+].[Na+].[Na+].[Na+] [Ceftriaxone sodium]	inactive: 1.46
C[C@](N)(Cc1ccc(O)c(O)c1)C(=O)O [L-alpha-Methyl DOPA]	inactive: 2.15
COc1c2occc2cc2ccc(=O)oc12	inactive: -0.384
CCC1NC(=O)c2cc(S(N)(=O)=O)c(Cl)cc2N1 (stereo unspecified)	inactive: 4.02
O.O.O.O=C([O-])C1[O][Sb]2[O]C(=O)C([O]2)C(C(=O)[O-])[O][Sb]2[O]C(=O)C1[O]2.[K+].[K+] (stereo unspecified)	inactive: 2.9
N=C(NCCC[C@H](N)C(=O)O)N[N+](=O)[O-] [NG-Nitro-L-arginine]	inactive: 2.38
C=C1[C@H]2CC[C@@]3(C)[C@H](c4ccoc4)OC(=O)C[C@]13O[C@H]1C[C@H](O)C(C)(C)[C@H](CC(=O)OC)[C@]12C [3-DEOXY-3beta-HYDROXYANGOLENSIC ACID METHYL ESTER]	inactive: 1.38
CNC(=O)c1cc(COc2nnc(Nc3ccc(Cl)cc3)c3ccoc23)ccn1 [Telatinib (BAY 57-9352)]	inactive: 0.742
Cc1ncc([N+](=O)[O-])n1C	inactive: 2.18
N[C@@H](CO)C(=O)O [serine]	inactive: 0.435
CCCCCCCCCCCCCCCC(=O)OC[C@H](NC(=O)C(Cl)Cl)[C@H](O)c1ccc([N+](=O)[O-])cc1	inactive: 1.06
COc1ccccc1OCCNCC(O)COc1cccc2[nH]c3ccccc3c12 (stereo unspecified) [Carvedilol]	active: -4.06
COc1ccc(C(CN(C)C)C2(O)CCCCC2)cc1.Cl (stereo unspecified)	inactive: 2.87
COc1ccc(C(CN(C)C)C2(O)CCCCC2)cc1.Cl (stereo unspecified) [Venlafaxine hydrochloride]	inactive: 1.76
